The values that follow come from publication PMC7862700.

One experiment deals with T1, FEV (UniProt Q99581).
T1 sequence: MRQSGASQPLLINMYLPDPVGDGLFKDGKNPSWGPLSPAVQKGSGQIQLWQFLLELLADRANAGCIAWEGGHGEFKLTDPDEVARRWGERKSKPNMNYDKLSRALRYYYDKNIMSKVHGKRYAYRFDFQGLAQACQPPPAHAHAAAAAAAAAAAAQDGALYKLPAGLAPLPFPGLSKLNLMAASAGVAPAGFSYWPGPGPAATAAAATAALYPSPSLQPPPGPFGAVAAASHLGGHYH
As to the kind of experiment: DAPPL (digital affinity profiling via proximity ligation, sequencing). To be noted: 10 mM Tris-HCl pH 7.5, 50 mM NaCl, 1 mM DTT, 4% glycerol, room temperature, 30 min; GST-TFs on glutathione beads, 16-mer random dsDNA library, 0.1% …; high values mean tight binding; double strand, one strand shown; scale: fold enrichment (6-mer frequency, TF over GST control).

The target of a further experiment is T2, ELF5 (UniProt Q9UKW6-2).
T2 sequence: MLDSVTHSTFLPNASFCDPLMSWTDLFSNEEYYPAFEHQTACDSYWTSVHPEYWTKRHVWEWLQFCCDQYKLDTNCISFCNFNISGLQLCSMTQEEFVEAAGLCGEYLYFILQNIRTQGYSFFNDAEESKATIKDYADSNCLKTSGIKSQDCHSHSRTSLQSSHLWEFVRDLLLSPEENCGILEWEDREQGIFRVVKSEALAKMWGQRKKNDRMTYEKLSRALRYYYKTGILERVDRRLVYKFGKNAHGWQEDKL
Described as above. The settings on record: 10 mM Tris-HCl pH 7.5, 50 mM NaCl, 1 mM DTT, 4% glycerol, room temperature, 30 min; GST-TFs on glutathione beads, 16-mer random dsDNA library, 0.1% …; high values mean tight binding; double strand, one strand shown; scale: fold enrichment (6-mer frequency, TF over GST control).

The entries are a selection whose mix differs from that of the whole data set. At the low end of the ranking the order means little.

Regarding GTGGAT, the binding signal came out at 0.816 with FEV and 0.946 in the experiment with ELF5.

For GAATTA, the binding signal with FEV came out at 0.983; in the experiment with ELF5, 1.03.

On to ATCCCG, for which the binding signal in the experiment with FEV amounted to 1.35; with ELF5, 1.7.

Turning to TCGAGA, the binding signal with FEV was found to be 0.6; in the experiment with ELF5, 0.581.

For CGAGAT, the binding signal with FEV turned out to be 0.833; with ELF5, 0.847.

As for TATGAG, the binding signal with FEV was 0.898; with ELF5 it was 0.999.

As to CTCCCC, the values for the binding signal in the experiment with FEV and with ELF5 were 1.4 and 1.33, respectively.

As for TGGATT, the results for the binding signal with FEV and in the experiment with ELF5 were 0.951 and 0.975, respectively.

AATTCT: the binding signal in the experiment with FEV came out at 1.29; with ELF5, 1.22.

Consider CATAAG, for which the binding signal was 0.877 with FEV and 0.904 with ELF5.

On to CGAATC, for which the binding signal was 0.998 with FEV and 0.969 with ELF5.

Turning to CGTAAA, the binding signal in the experiment with FEV was 1.04; with ELF5, 1.14.

As for CTACCA, the binding signal stood at 1.14 with FEV and 1.26 with ELF5.

Consider CTAGAA, for which the binding signal was 0.977 with FEV and 0.991 with ELF5.

In the case of GTAGAT, the results for the binding signal with FEV and in the experiment with ELF5 were 0.878 and 0.892, respectively.

As for GGATAA, the binding signal with FEV came out at 0.743; with ELF5, 0.896.

On to ATAAGC, for which the binding signal is 1.02 with FEV and 0.995 with ELF5.

Take AGGATT: the binding signal with FEV worked out at 0.933; with ELF5 it was 0.969.

For the sequence TAGTAG, the binding signal in the experiment with FEV stood at 0.963; with ELF5, 0.976.

Consider TTAGGA, for which the binding signal with FEV came to 0.885; with ELF5 it was 0.975.

For the sequence TGTGAT, the binding signal amounted to 0.958 with FEV and 0.95 with ELF5.

Take GATAAC: the results for the binding signal with FEV and in the experiment with ELF5 were 0.984 and 0.948, respectively.

As for ATTACC, the binding signal came to 1.25 with FEV and 1.32 with ELF5.

On to GCATTA, for which the binding signal with FEV was 0.774; with ELF5, 0.782.

As for TGAATC, the binding signal in the experiment with FEV stood at 0.955; with ELF5 it was 0.924.

Regarding GATTCG, the binding signal amounted to 0.965 with FEV and 0.931 in the experiment with ELF5.

GATCTG: the binding signal was found to be 0.939 with FEV and 0.921 in the experiment with ELF5.

As for TCGTAT, the binding signal came out at 1.05 in the experiment with FEV and 1.01 in the experiment with ELF5.

As for CTACGT, the binding signal in the experiment with FEV was 1.28; with ELF5, 1.27.

As for TCTAGG, the binding signal with FEV came out at 1; with ELF5 it was 1.07.

Consider GGCTTT, for which the figures for the binding signal in the experiment with FEV and with ELF5 were 0.974 and 0.939, respectively.

Turning to ATTAAC, the binding signal stood at 1.27 with FEV and 1.23 with ELF5.

With AGGCTA, the figures for the binding signal with FEV and in the experiment with ELF5 were 0.939 and 0.901, respectively.

TCAGCT: the binding signal amounted to 0.991 with FEV and 0.948 with ELF5.

As for CCTAAG, the binding signal with FEV is 1.14; with ELF5, 1.11.

For the sequence CTTCCC, the binding signal stood at 1.91 with FEV and 3.61 in the experiment with ELF5.

Turning to GCGATT, the results for the binding signal with FEV and in the experiment with ELF5 were 0.892 and 0.87, respectively.

With CAGCCT, the values for the binding signal with FEV and with ELF5 were 1.02 and 0.908, respectively.

For AAGCCG, the binding signal in the experiment with FEV worked out at 0.947; in the experiment with ELF5, 0.893.

For AACTGG, the binding signal worked out at 1.12 with FEV and 1.26 with ELF5.

For TCAAGA, the binding signal with FEV worked out at 0.757; with ELF5 it was 0.846.

As to GATAAA, the binding signal is 0.949 with FEV and 0.946 with ELF5.

As for GGCTTG, the binding signal with FEV was found to be 1.01; with ELF5 it was 0.982.

Regarding TAGTTG, the binding signal was 0.908 in the experiment with FEV and 0.931 with ELF5.

Consider GTAAGC, for which the results for the binding signal in the experiment with FEV and with ELF5 were 0.898 and 0.934, respectively.

Consider TTAGTG, for which the figures for the binding signal in the experiment with FEV and with ELF5 were 0.832 and 0.793, respectively.

With GATCAC, the binding signal was 0.95 with FEV and 0.9 with ELF5.

Regarding TTGTAG, the binding signal amounted to 1.02 with FEV and 1.1 with ELF5.

Take AGGGTT: the results for the binding signal with FEV and with ELF5 were 0.895 and 0.913, respectively.

Turning to GACTAT, the binding signal in the experiment with FEV is 0.896; with ELF5 it was 0.868.

As to AGATAT, the binding signal with FEV turned out to be 0.875; with ELF5, 1.06.

As to TCTCCT, the binding signal is 1.43 with FEV and 1.41 in the experiment with ELF5.

On to GATAAG, for which the binding signal came to 0.785 in the experiment with FEV and 0.951 with ELF5.

In the case of GATTTA, the binding signal turned out to be 0.968 in the experiment with FEV and 0.958 with ELF5.

As to TCCAGC, the binding signal is 0.98 in the experiment with FEV and 0.942 with ELF5.

In the case of AGATCA, the binding signal in the experiment with FEV worked out at 0.84; in the experiment with ELF5, 0.772.

For AGGGAT, the binding signal with FEV was 0.782; with ELF5 it was 0.873.

As for AGATCT, the figures for the binding signal in the experiment with FEV and with ELF5 were 0.924 and 0.934, respectively.

Consider ATCGCA, for which the results for the binding signal with FEV and with ELF5 were 1.01 and 0.975, respectively.

With AGAGCT, the binding signal in the experiment with FEV came out at 0.879; with ELF5 it was 0.938.

For TTCTGT, the binding signal is 1.27 in the experiment with FEV and 1.29 in the experiment with ELF5.

In the case of CCGACT, the binding signal in the experiment with FEV turned out to be 1.52; with ELF5, 1.41.

As for AAGCCC, the results for the binding signal with FEV and with ELF5 were 1.06 and 1.02, respectively.

As to TTTGAT, the binding signal amounted to 1.17 in the experiment with FEV and 1.26 with ELF5.
